In US11565003B2, “Mechanical opening of lipid bilayers by molecular nanomachines” (William Marsh Rice University, priority 2016, dated 2023):
Some of these results come from one statement about several compounds together. Starred links: 1 amine or outer side, 2 acyl side, 3 side chain; linkers in the order of their positions; H or OH if unused. Positions of bridges follow the written chain, without caps; N, C: chain ends. Residues, ends and D or L forms follow the SMILES beside them. Chains are numbered I, II in the order given. *: point of attachment. X2 = C[C@@H]1Cc2ccc3ccccc3c2C1=C1c2cc(C#CCCn3cc(C(=O)[*:1])nn3)ccc2Sc2ccc(C#CCCn3cc(C(=O)[*:2])nn3)cc21; X1 = C[C@@H]1Cc2ccc3ccccc3c2/C1=C1\c2cc(C#CCCN=[N+]=[N-])ccc2Sc2ccc(C#CCCn3cc(C(=O)*)nn3)cc21

Tested on: PC-3 cells
Assay: 24 hours incubation without UV: proliferation and apoptosis (Annexin V, Image Cytometry)
Format: cell-based, human
Conditions: PC-3, 24 hours incubation, harvested via trypsination
Experimental: When PC-3 cells are loaded at 0.5 or 1.0 μM with 9 or 10, washed three times (Method B) or unwashed (Method A) after 24 hours of incubation, the cells visually appear without major signs of toxicity. However, the cells which had been incubated with 9 or 10 over 24 hours were not dividing as prolifically. The cultures appear to be populated ˜25% less in the presence of 9 and 20% of the cells in 10 compared to control untreated cells (FIGS. 12A-E).
In order to further investigate this point, these cells were collected via gentle centrifugation and re-suspended in fresh PBS and analyzed by Image Cytometry. Using Annexin V, these cells were all confirmed to show signs of apoptosis at 93±5%. This is in contrast to the remaining coverslip surface-bound cells that appear healthy.
These latter types of non-apoptotic cells show identical percentage of necrosis acceleration upon subsequent UV-activation of the cell-surface bound nanomachines compared to their shorter incubation time analogues. Thus, it appears that, upon 24 hour incubation, a noticeable amount of cells have nanomachines 9 and 10 either bound to vital cell membrane channels or transport proteins or they are internalized, subsequently shutting down some natural homeostatic mechanisms that leads to programmed cell death (FIGS. 12A-E). […]

SMILES | apoptosis of remaining surface-bound cells [%]
CC(C)[C@H](NC(=O)[C@H](CCCNC(=N)N)NC(=O)[C@@H](NC(=O)[C@H](CC(N)=O)NC(=O)[C@H](CO)NC(=O)c1cn(CCC#Cc2ccc3c(c2)/C(=C2/c4c(ccc5ccccc45)C[C@H]2C)c2cc(C#CCCN=[N+]=[N-])ccc2S3)nn1)[C@@H](C)O)C(=O)N[C@@H](C)C(=O)N1CCC[C@H]1C(=O)O [Compound 10] (X1-SNTRVAP-OH) | < 5
CC(C)[C@H](NC(=O)[C@H](CCCNC(=N)N)NC(=O)[C@@H](NC(=O)[C@H](CC(N)=O)NC(=O)[C@H](CO)NC(=O)c1cn(CCC#Cc2ccc3c(c2)C(=C2c4c(ccc5ccccc45)C[C@H]2C)c2cc(C#CCCn4cc(C(=O)N[C@@H](CO)C(=O)N[C@@H](CC(N)=O)C(=O)N[C@H](C(=O)N[C@@H](CCCNC(=N)N)C(=O)N[C@H](C(=O)N[C@@H](C)C(=O)N5CCC[C@H]5C(=O)O)C(C)C)[C@@H](C)O)nn4)ccc2S3)nn1)[C@@H](C)O)C(=O)N[C@@H](C)C(=O)N1CCC[C@H]1C(=O)O [Compound 9] (I: SNTRVAP-OH / II: SNTRVAP-OH; linker I:N-II:N via X2) | < 5
